Results published in patent EP1881007A1.
These are yes or no findings as the source states them, for the method shown. Some entries that bind do so weakly or less than the wild type.

Protein sequences, listed by entry. Tags and fused reporters are not part of them.
UniProt Q99816: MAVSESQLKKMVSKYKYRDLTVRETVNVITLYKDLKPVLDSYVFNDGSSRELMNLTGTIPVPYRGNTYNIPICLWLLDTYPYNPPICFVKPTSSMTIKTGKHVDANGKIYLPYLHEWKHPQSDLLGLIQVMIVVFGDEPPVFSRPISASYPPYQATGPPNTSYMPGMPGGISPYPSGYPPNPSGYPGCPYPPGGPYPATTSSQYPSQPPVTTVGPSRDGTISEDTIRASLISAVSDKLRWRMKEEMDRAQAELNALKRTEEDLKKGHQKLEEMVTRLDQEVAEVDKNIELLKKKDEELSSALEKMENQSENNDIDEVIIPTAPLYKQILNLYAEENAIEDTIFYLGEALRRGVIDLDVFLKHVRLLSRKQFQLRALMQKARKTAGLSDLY

Biological target: TSG101 (UniProt Q99816)
Test: yeast two hybrid screening

binding: binds
B1: DINO polypeptide (enzyme)
chain: MYFCWGADSRELQRRRTAGSPGAELLQAASGERHSLLLLTNHRVLSCGDNSRGQLGRRGAQRGELPEPIQALETLIVDLVSCGKEHSLAVCHKGRVFAWGAGSEGQLGIGEFKEISFTPKKIMTLNDIKIIQVSCGHYHSLALSKDSQVFSWGKNSHGQLGLGKEFPSQASPQRVRSLEGIPLAQVAAGGAHSFALSLCGTSFGWGSNSAGQLALSGRNVPVQSNKPLSVGALKNLGVVYISCGDAHTAVLTQDGKVFTFGDNRSGQLGYSPTPEKRGPQLVERIDGLVSQIDCGSYHTLAYVHTTGQVVSFGHGPSDTSKPTHPEALTENFDISCLISAEDFVDVQVKHIFAGTYANFVTTHQDTSSTRAPGKTLPEISRISQSMAEKWIAVKRRSTEHEMAKSEIRMIFSSPACLTASFLKKRGTGETTSIDVDLEMARDTFKKLTKKEWISSMITTCLEDDLLRALPCHSPHQEALSVFLLLPECPVMHDSKNWKNLVVPFAKAVCEMSKQSLQVLKKCWAFLQESSLNPLIQMLKAAIISQLLHQTKTEQDHCNVKALLGMMKELHKVNKANCRLPENTFNINELSNLLNFYIDRGRQLFRDNHLIPAETPSPVIFSDFPFIFNSLSKIKLLQADSHIKMQMSEKKAYMLMHETILQKKDEFPPSPRFILRVRRSRLVKDALRQLSQAEATDFCKVLVVEFINEICPESGGVSSEFFHCMFEEMTKPEYGMFMYPEMGSCMWFPAKPKPEKKRYFLFGMLCGLSLFNLNVANLPFPLALYKKLLDQKPSLEDLKELSPRLGKSLQEVLDDAADDIGDALCIRFSIHWDQNDVDLIPNGISIPVDQTNKRDYVSKYIDYIFNVSVKAVYEEFQRGFYRVCEKEILRHFYPEELMTGIIGNTDYDWKQFEQNSKYEQGYQKSHPTIQLFWKAFHKLTLDEKKKFLFFLTGRDRLHARGIQKMEIVFRCPETFSERDHPTSITCHNILSLPKYSTMERMEEALQVAINNNRGFVSPMLTQS
